{"source": "PubChem BioAssay AID1224829 (NIAID, 2016)", "test": "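Genes needed for LPS-driven NF-kappaB p65 nuclear entry in mouse macrophages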 (follow-up of hits)", "system": "mouse RAW264.7 G9 macrophage reporter cells", "knock-down reagent": "single siRNA against mouse genes, 100 nM", "timing": "2 days of siRNA knock-down, then 40 min of LPS before fixing", "treatment": "LPS (Salmonella minnesota R595) at 10 ng/ml", "read-out": "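High-content images after 40 min LPS exposure; GFP-p65 nucleus to surrounding ring signal ratio, normalised to plate median and non-targeting control wells, expressed as z-score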", "reading the numbers": "p65 translocation z-score: higher = more nuclear NF-kappaB p65 after LPS", "rule for the call": "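Active means the replicate-mean z-score lies beyond plus or minus 2, in either direction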", "calls": "active = changed p65 translocation (either direction); inactive = no clear change", "note": "This is one part, drawn at random, of about 3,800 deposited reagents. 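Calls cover raised and lowered translocation; gene median uses one vendor's three siRNAs; qiagen siRNAs acted more weakly than ambion siRNAs.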 Entries without a mark were called inactive. The numbers tell different reagents against one gene apart. Further read-outs or replicates are left out here."}
{"gene knocked down": "Twist1", "reagent": 1, "siRNA vendor or control pool": "ambion single siRNA", "p65 translocation z-score, replicate mean": -0.339}
{"gene knocked down": "Twist1", "reagent": 2, "siRNA vendor or control pool": "ambion single siRNA", "p65 translocation z-score, replicate mean": -1.03}
{"gene knocked down": "Twist1", "reagent": 3, "siRNA vendor or control pool": "ambion single siRNA", "p65 translocation z-score, replicate mean": -0.932}
{"gene knocked down": "Twist1", "reagent": 4, "siRNA vendor or control pool": "qiagen single siRNA", "p65 translocation z-score, replicate mean": 1.68}
{"gene knocked down": "Twist1", "reagent": 5, "siRNA vendor or control pool": "qiagen single siRNA", "p65 translocation z-score, replicate mean": -1.01}
{"gene knocked down": "Twist1", "reagent": 6, "siRNA vendor or control pool": "qiagen single siRNA", "p65 translocation z-score, replicate mean": "-2.91 (active)"}
{"gene knocked down": "Kmt2a", "reagent": 1, "siRNA vendor or control pool": "qiagen single siRNA", "p65 translocation z-score, replicate mean": "-2.47 (active)"}
{"gene knocked down": "Kmt2a", "reagent": 2, "siRNA vendor or control pool": "qiagen single siRNA", "p65 translocation z-score, replicate mean": 1.02}
{"gene knocked down": "Kmt2a", "reagent": 3, "siRNA vendor or control pool": "qiagen single siRNA", "p65 translocation z-score, replicate mean": -0.627}
{"gene knocked down": "Dock2", "reagent": 1, "siRNA vendor or control pool": "ambion single siRNA", "p65 translocation z-score, replicate mean": 0.251}
{"gene knocked down": "Dock2", "reagent": 2, "siRNA vendor or control pool": "ambion single siRNA", "p65 translocation z-score, replicate mean": "-2.92 (active)"}
{"gene knocked down": "Dock2", "reagent": 3, "siRNA vendor or control pool": "ambion single siRNA", "p65 translocation z-score, replicate mean": "-3.68 (active)"}
{"gene knocked down": "Dock2", "reagent": 4, "siRNA vendor or control pool": "qiagen single siRNA", "p65 translocation z-score, replicate mean": 1.31}
{"gene knocked down": "Dock2", "reagent": 5, "siRNA vendor or control pool": "qiagen single siRNA", "p65 translocation z-score, replicate mean": -0.295}
{"gene knocked down": "Dock2", "reagent": 6, "siRNA vendor or control pool": "qiagen single siRNA", "p65 translocation z-score, replicate mean": -0.906}
{"gene knocked down": "Med25", "reagent": 1, "siRNA vendor or control pool": "ambion single siRNA", "p65 translocation z-score, replicate mean": -1.78}
{"gene knocked down": "Med25", "reagent": 2, "siRNA vendor or control pool": "ambion single siRNA", "p65 translocation z-score, replicate mean": -1.18}
{"gene knocked down": "Med25", "reagent": 3, "siRNA vendor or control pool": "ambion single siRNA", "p65 translocation z-score, replicate mean": -1.9}
{"gene knocked down": "Med25", "reagent": 4, "siRNA vendor or control pool": "qiagen single siRNA", "p65 translocation z-score, replicate mean": -0.942}
{"gene knocked down": "Med25", "reagent": 5, "siRNA vendor or control pool": "qiagen single siRNA", "p65 translocation z-score, replicate mean": "2.15 (active)"}
{"gene knocked down": "Med25", "reagent": 6, "siRNA vendor or control pool": "qiagen single siRNA", "p65 translocation z-score, replicate mean": 1.5}
{"gene knocked down": "Gspt1", "reagent": 1, "siRNA vendor or control pool": "ambion single siRNA", "p65 translocation z-score, replicate mean": -0.234}
{"gene knocked down": "Gspt1", "reagent": 2, "siRNA vendor or control pool": "ambion single siRNA", "p65 translocation z-score, replicate mean": -1.53}
{"gene knocked down": "Gspt1", "reagent": 3, "siRNA vendor or control pool": "ambion single siRNA", "p65 translocation z-score, replicate mean": 0.546}
{"gene knocked down": "Gspt1", "reagent": 4, "siRNA vendor or control pool": "qiagen single siRNA", "p65 translocation z-score, replicate mean": "-3.24 (active)"}
{"gene knocked down": "Gspt1", "reagent": 5, "siRNA vendor or control pool": "qiagen single siRNA", "p65 translocation z-score, replicate mean": -1.93}
{"gene knocked down": "Gspt1", "reagent": 6, "siRNA vendor or control pool": "qiagen single siRNA", "p65 translocation z-score, replicate mean": -0.99}
{"gene knocked down": "Rpl37a", "reagent": 1, "siRNA vendor or control pool": "ambion single siRNA", "p65 translocation z-score, replicate mean": -0.616}
{"gene knocked down": "Rpl37a", "reagent": 2, "siRNA vendor or control pool": "ambion single siRNA", "p65 translocation z-score, replicate mean": -1.63}
{"gene knocked down": "Rpl37a", "reagent": 3, "siRNA vendor or control pool": "ambion single siRNA", "p65 translocation z-score, replicate mean": -1.65}
{"gene knocked down": "Rpl37a", "reagent": 4, "siRNA vendor or control pool": "qiagen single siRNA", "p65 translocation z-score, replicate mean": -1.42}
{"gene knocked down": "Rpl37a", "reagent": 5, "siRNA vendor or control pool": "qiagen single siRNA", "p65 translocation z-score, replicate mean": "-2.71 (active)"}
{"gene knocked down": "Rpl37a", "reagent": 6, "siRNA vendor or control pool": "qiagen single siRNA", "p65 translocation z-score, replicate mean": "-6.61 (active)"}

3 successive reagents from above:
{"gene knocked down": "Twist1", "reagent": 2, "siRNA vendor or control pool": "ambion single siRNA", "p65 translocation z-score, replicate mean": -1.03}
{"gene knocked down": "Twist1", "reagent": 3, "siRNA vendor or control pool": "ambion single siRNA", "p65 translocation z-score, replicate mean": -0.932}
{"gene knocked down": "Twist1", "reagent": 4, "siRNA vendor or control pool": "qiagen single siRNA", "p65 translocation z-score, replicate mean": 1.68}
